Results are given in words; binding and its absence hold for the method and conditions named. Some results given as binding are weak or reduced against the parent protein; the word gives no strength.
T1: activated C1s (C1s̄) (UniProt P09871)
T1 sequence (chain, biotinylated | biotinylated) 1: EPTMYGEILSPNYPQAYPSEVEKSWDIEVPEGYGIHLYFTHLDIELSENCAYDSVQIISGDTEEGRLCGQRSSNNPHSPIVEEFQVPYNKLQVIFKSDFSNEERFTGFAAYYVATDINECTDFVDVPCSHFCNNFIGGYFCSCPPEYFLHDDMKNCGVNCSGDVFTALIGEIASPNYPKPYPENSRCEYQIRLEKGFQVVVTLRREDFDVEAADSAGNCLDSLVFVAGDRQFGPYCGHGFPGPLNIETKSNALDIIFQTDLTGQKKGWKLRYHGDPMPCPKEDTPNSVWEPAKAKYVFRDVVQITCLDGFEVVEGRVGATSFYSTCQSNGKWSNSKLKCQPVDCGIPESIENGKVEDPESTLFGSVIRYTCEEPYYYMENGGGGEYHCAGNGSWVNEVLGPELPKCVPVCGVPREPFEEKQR
T1 sequence (chain, biotinylated | biotinylated) 2: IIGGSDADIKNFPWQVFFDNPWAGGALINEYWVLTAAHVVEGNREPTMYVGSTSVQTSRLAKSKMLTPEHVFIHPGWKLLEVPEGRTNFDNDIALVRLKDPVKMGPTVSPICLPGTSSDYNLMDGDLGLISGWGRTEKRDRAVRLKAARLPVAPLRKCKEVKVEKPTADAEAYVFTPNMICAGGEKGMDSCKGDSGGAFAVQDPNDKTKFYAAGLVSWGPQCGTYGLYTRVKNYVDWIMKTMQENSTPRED

By UniProt entry, the sequences of proteins in these tests, tags left out. Where a name states a change or a piece, a line headed by the entry shows the natural chain unless it says otherwise.
UniProt P03952: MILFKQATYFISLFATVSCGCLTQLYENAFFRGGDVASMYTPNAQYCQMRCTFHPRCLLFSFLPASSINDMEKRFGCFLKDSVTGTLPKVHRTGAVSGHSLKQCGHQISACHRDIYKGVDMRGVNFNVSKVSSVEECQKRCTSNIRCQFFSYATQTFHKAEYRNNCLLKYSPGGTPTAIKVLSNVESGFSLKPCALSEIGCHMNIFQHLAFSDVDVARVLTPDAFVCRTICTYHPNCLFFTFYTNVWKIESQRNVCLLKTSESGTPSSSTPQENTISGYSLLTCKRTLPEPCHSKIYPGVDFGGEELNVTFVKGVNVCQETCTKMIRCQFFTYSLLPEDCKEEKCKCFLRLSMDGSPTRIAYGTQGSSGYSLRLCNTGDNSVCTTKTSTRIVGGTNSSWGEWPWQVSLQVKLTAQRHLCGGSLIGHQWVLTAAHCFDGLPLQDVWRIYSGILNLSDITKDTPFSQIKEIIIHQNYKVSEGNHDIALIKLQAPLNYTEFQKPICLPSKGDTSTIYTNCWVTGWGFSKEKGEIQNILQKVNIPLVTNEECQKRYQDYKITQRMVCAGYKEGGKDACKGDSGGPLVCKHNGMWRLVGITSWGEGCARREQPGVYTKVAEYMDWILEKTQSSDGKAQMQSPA


Experiments:
kallikrein (PKa) (human) = kallikrein (PKa) (human) (UniProt P03952); test: ELISA; biotinylated FXIIa or PKa (25 μL of 2 μg/mL) with an equivalent molar amount of C1-INH (transfectant supernatant) in 2% BSA in PBS-T on a streptavidin-coated plate, 1 hour at 37°C; bound complex detected with anti-C1-INH mAb; serially diluted samples; relative absorbance against WT; only the target purified
activated C1s (C1s̄) = biological target: T1, activated C1s (C1s̄); test: ELISA; Quidel kit: C1-INH (transfectant supernatant) incubated with biotinylated C1s̄, the complex captured on streptavidin-coated wells, detected with goat anti-human C1-INH Ab; C1-INH at 125 ng/mL, 250 ng/mL, 500 ng/mL and 1 μg/mL; relative absorbance (450 nm) against WT; only the target purified

Binder	binding (kallikrein (PKa) (human))	binding (activated C1s (C1s̄))
C1-INH N352A (protein, UniProt P05155 23-500) NPNATSSSSQDPESLQDRGEGKVATTVISKMLFVEPILEVSSLPTTNSTTNSATKITANTTDEPTTQPTTEPTTQPTIQPTQPTTQLPTDSPTQPTTGSFCPGPVTLCSDLESHSTEAVLGDALVDFSLKLYHAFSAMKKVETNMAFSPFSIASLLTQVLLGAGENTKTNLESILSYPKDFTCVHQALKGFTTKGVTSVSQIFHSPDLAIRDTFVNASRTLYSSSPRVLSNNSDANLELINTWVAKNTNNKISRLLDSLPSDTRLVLLNAIYLSAKWKTTFDPKKTRMEPFHFKNSVIKVPMMNSKKYPVAHFIDQTLKAKVGQLQLSHALSLVILVPQNLKHRLEDMEQALSPSVFKAIMEKLEMSKFQPTLLTLPRIKVTTSQDMLSIMEKLEFFDFSYDLNLCGLTEDPDLQVSAMQHQTVLELTETGVEAAAASAISVARTLLVFEVQQPFLFVLWDQQHKFPVFMGRVYDPRA	binds	binds
C1-INH N352S (protein, UniProt P05155 23-500) NPNATSSSSQDPESLQDRGEGKVATTVISKMLFVEPILEVSSLPTTNSTTNSATKITANTTDEPTTQPTTEPTTQPTIQPTQPTTQLPTDSPTQPTTGSFCPGPVTLCSDLESHSTEAVLGDALVDFSLKLYHAFSAMKKVETNMAFSPFSIASLLTQVLLGAGENTKTNLESILSYPKDFTCVHQALKGFTTKGVTSVSQIFHSPDLAIRDTFVNASRTLYSSSPRVLSNNSDANLELINTWVAKNTNNKISRLLDSLPSDTRLVLLNAIYLSAKWKTTFDPKKTRMEPFHFKNSVIKVPMMNSKKYPVAHFIDQTLKAKVGQLQLSHSLSLVILVPQNLKHRLEDMEQALSPSVFKAIMEKLEMSKFQPTLLTLPRIKVTTSQDMLSIMEKLEFFDFSYDLNLCGLTEDPDLQVSAMQHQTVLELTETGVEAAAASAISVARTLLVFEVQQPFLFVLWDQQHKFPVFMGRVYDPRA	binds	binds
C1-INH N352I (protein, UniProt P05155 23-500) NPNATSSSSQDPESLQDRGEGKVATTVISKMLFVEPILEVSSLPTTNSTTNSATKITANTTDEPTTQPTTEPTTQPTIQPTQPTTQLPTDSPTQPTTGSFCPGPVTLCSDLESHSTEAVLGDALVDFSLKLYHAFSAMKKVETNMAFSPFSIASLLTQVLLGAGENTKTNLESILSYPKDFTCVHQALKGFTTKGVTSVSQIFHSPDLAIRDTFVNASRTLYSSSPRVLSNNSDANLELINTWVAKNTNNKISRLLDSLPSDTRLVLLNAIYLSAKWKTTFDPKKTRMEPFHFKNSVIKVPMMNSKKYPVAHFIDQTLKAKVGQLQLSHILSLVILVPQNLKHRLEDMEQALSPSVFKAIMEKLEMSKFQPTLLTLPRIKVTTSQDMLSIMEKLEFFDFSYDLNLCGLTEDPDLQVSAMQHQTVLELTETGVEAAAASAISVARTLLVFEVQQPFLFVLWDQQHKFPVFMGRVYDPRA	binds	binds
C1-INH S275del (protein, UniProt P05155 23-500) NPNATSSSSQDPESLQDRGEGKVATTVISKMLFVEPILEVSSLPTTNSTTNSATKITANTTDEPTTQPTTEPTTQPTIQPTQPTTQLPTDSPTQPTTGSFCPGPVTLCSDLESHSTEAVLGDALVDFSLKLYHAFSAMKKVETNMAFSPFSIASLLTQVLLGAGENTKTNLESILSYPKDFTCVHQALKGFTTKGVTSVSQIFHSPDLAIRDTFVNASRTLYSSSPRVLSNNSDANLELINTWVAKNTNNKIRLLDSLPSDTRLVLLNAIYLSAKWKTTFDPKKTRMEPFHFKNSVIKVPMMNSKKYPVAHFIDQTLKAKVGQLQLSHNLSLVILVPQNLKHRLEDMEQALSPSVFKAIMEKLEMSKFQPTLLTLPRIKVTTSQDMLSIMEKLEFFDFSYDLNLCGLTEDPDLQVSAMQHQTVLELTETGVEAAAASAISVARTLLVFEVQQPFLFVLWDQQHKFPVFMGRVYDPRA		binds

Source: paper PMC11949052
